Among the data in article PMC4284738, “14-3-3 Proteins Participate in Light Signaling through Association with PHYTOCHROME INTERACTING FACTORs” (International Journal of Molecular Sciences, 2014) are binding values, retold here.

By UniProt entry, the sequences of proteins in these tests, tags left out.
UniProt Q8L5W7: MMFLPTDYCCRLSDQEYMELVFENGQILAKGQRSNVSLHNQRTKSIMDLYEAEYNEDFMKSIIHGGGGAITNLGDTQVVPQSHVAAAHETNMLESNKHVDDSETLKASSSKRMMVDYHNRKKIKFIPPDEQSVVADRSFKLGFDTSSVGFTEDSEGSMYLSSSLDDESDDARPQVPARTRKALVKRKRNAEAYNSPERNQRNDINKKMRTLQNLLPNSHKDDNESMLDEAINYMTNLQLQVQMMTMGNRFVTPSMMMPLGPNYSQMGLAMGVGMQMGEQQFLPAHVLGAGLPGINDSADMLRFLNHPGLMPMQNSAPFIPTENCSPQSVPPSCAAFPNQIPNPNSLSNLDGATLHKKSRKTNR

Results are given in words; binding and its absence hold for the method and conditions named. Some results given as binding are weak or reduced against the parent protein; the word gives no strength. Sequences can lack the tags named with a protein.

In assay [1] the target is T1, MBP-LONG HYPOCOTYL IN FAR-RED1 (HFR1) (Arabidopsis thaliana) (UniProt Q9FE22).
T1 sequence: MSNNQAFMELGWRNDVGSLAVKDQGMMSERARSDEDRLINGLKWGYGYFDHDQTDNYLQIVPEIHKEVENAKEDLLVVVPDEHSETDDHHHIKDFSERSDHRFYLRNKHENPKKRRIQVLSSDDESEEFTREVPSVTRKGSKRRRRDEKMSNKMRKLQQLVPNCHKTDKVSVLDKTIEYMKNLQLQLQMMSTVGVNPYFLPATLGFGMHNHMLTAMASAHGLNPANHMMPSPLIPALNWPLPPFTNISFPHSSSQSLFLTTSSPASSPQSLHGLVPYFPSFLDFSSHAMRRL
As to the kind of experiment: pull-down; 0.3–20 µg of His-14-3-3κ incubated with MBP or MBP-PIFs in MBP column buffer at 4 °C in dark for 5–6 h, then amylose resin overnight; elution with 10 mM maltose; blot with anti-His and anti-MBP; both purified.

The target of assay [2] is MBP-PIF6 (Arabidopsis thaliana) (UniProt Q8L5W7). Described as above.

B1: His-tagged 14-3-3κ (natural protein, Arabidopsis thaliana, UniProt P48348 1-248, looked up)
chain: MATTLSRDQYVYMAKLAEQAERYEEMVQFMEQLVSGATPAGELTVEERNLLSVAYKNVIGSLRAAWRIVSSIEQKEESRKNEEHVSLVKDYRSKVETELSSICSGILRLLDSHLIPSATASESKVFYLKMKGDYHRYLAEFKSGDERKTAAEDTMIAYKAAQDVAVADLAPTHPIRLGLALNFSVFYYEILNSSEKACSMAKQAFEEAIAELDTLGEESYKDSTLIMQLLRDNLTLWTSDMQEQMDEA
notes: 14-3-3 kappa isoform, Arabidopsis thaliana; also called HIS-14-3-3κ; His-14-3-3κ
B1: the binding entry is recorded as “no binding” in assay [1] and “binds” in assay [2].
